Patent US20240376207A1
Results are given in words; binding and its absence hold for the method and conditions named. Some results given as binding are weak or reduced against the parent protein; the word gives no strength.

B1: anti-PVRIG antibody 20 (antibody, human IgG4 S228P, F234A L235A, V domains shown)
VH: DVQLVESGGGSVQAGGSLRLSCVASRYTSRTDCMGWFRQAPGKEHEGVAHIDSDGIPRYVDSVKGRFTISQDHAKNTLYLQMNSLKPEDSATYYCVVGFKFDDDYCAPNDWGQGTQVTVSS
B2: anti-PVRIG antibody 30 (antibody, human IgG4 S228P, F234A L235A, V domains shown)
VH: HVQLVESGGGSVQAGGSLRLSCEASGYSYSGDCMGWFRRAPGKERDEGVATIDNAGRIKYADSVKGRFTISHGNGKYILYLQMNSLKPEDTDMYYCAAGWTFGGNCSPADWGQGTQVTVSS
B3: anti-PVRIG antibody 38 (antibody, human IgG4 S228P, F234A L235A, V domains shown)
VH: QVQLVESGGGSVQAGGSLRLSCAASPSTYGPSDMAWFRQAPGKQREGVATISAAGRLTYYTDSVRGRFTISRDNAKNTMYLQMNSLKPEDTAMYYCAADFAGGSSLFADYKYWGQGTQVTVSS
B4: anti-PVRIG antibody 39 (antibody, human IgG4 S228P, F234A L235A, V domains shown)
VH: QVQLVESGGGSVQAGGSLRLSCAASRYTSRTDCMGWFRQAPGKEREGVAHIDSDGIPRYVESVKGRFTISQDHAKNTLYLQMNSLKPEDSATYYCVVGFKFGDYCAPNDWGQGTQVTVSS
B5: anti-PVRIG antibody 151 (antibody, human IgG4 S228P, F234A L235A, V domains shown)
VH: HVQLVESGGGSVQAGGSLRLSCVASASGFTYRPYCMAWFRQAPGKEREAVAGIDIFGGTTYADSVKGRFTASRDNAGFSLFLQMNDLKPEDTAMYYCAAGDSPDGRCPPLGQGLNYWGQGTQVTVSS

How the values were obtained:
[1] = molecular target: cynomolgus monkey PVRIG expressed on cells (cynomolgus monkey); assay: FACS, HEK293 cells overexpressing target; N.A. = binding too strong to fit EC50
[2] = molecular target: cynomolgus monkey PVRIG expressed on cells (cynomolgus monkey); assay: FACS, HEK293 cells overexpressing target

Row | binding [1] | binding [2] | Binder
1 | binds | binds | B1
2 |  | binds | B2
3 |  | binds | B3
4 |  | binds | B4
5 |  | binds | B5
